From the supplement of paper PMC8256030
“And” between values parts separate entries of the source, which are not always exact repeats. Identical values can stand only once. The list shows a part of the results. Single values are uncertain here, since repeats match poorly.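 HEK293T cells were given each compound shortly before transfection with a reporter in which red mCherry is followed by the SARS-CoV-2 frameshift element and then GFP in the −1 frame, so GFP appears only after frameshifting.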

These molecules were tested on HEK293T (assay: percent viability (nuclei count) relative to control; higher = more viable cells). Settings: 10 µM; 24 h.

Row | SMILES | percent viability
1 | CCO/C([O-])=N/c1c[n+](N2CCOCC2)no1 | 157%
2 | COc1cc(Cl)nc(OC)n1 | 197%
3 | NCCC[C@H](N)CC(=O)N[C@H]1CNC(=O)[C@H]([C@H]2C[C@H](O)NC(N)=N2)NC(=O)/C(=C/NC(N)=O)NC(=O)[C@H](CO)NC(=O)[C@H](CO)NC1=O | 363%
4 | CN(C)CCC[C@@]1(c2ccc(F)cc2)OCc2cc(C#N)ccc21 [escitalopram] | 181% and 161%
5 | COc1ccc2nc3cc(Cl)ccc3c(Nc3cc(CN4CCCC4)c(O)c(CN4CCCC4)c3)c2n1 | 278%
6 | CNC(=O)COc1cc2cc(Nc3nc(N4C[C@H](C)C[C@H](C)C4)ncc3Cl)ccc2n(C)c1=O | 277%
7 | CCOC(=O)c1nc(=O)c2cc3cc(OC)c(OC)cc3nc2[nH]1 [pirolate] | 136%
8 | CN(C)CCc1c[nH]c2ccc(C[C@H]3COC(=O)N3)cc12 [zolmitriptan] | 208%
9 | COc1cc(/C=C/C(=O)N2CCCCCCC2)cc(OC)c1OC [cinoctramide] | 24.3%
10 | Oc1c(Cl)cc(Cl)cc1Sc1cc(Cl)cc(Cl)c1O | 315%
11 | C/C=C/C1=C(C(=O)O)N2C(=O)[C@@H](NC(=O)[C@H](N)c3ccc(O)cc3)[C@H]2SC1 | 192%
12 | C#C[C@]1(O)CC[C@H]2[C@@H]3CCC4=CCCC[C@@H]4[C@H]3C(=C)C[C@@]21CC [desogestrel] | 238%
13 | CC(C)c1ccccc1 [Sucralfate] | 331%
14 | CCCCCNCC(N)=O [milacemide] | 262%
15 | NCCc1cc[nH]n1 [betazole] | 232%
16 | COc1ccnc(C[S+]([O-])c2nc3cc(-n4cccc4)ccc3[nH]2)c1C (stereo not given) [ilaprazole] | 203%
17 | CC[C@]1(O)C[C@@H]2CN(CCc3c([nH]c4ccccc34)[C@@](C(=O)OC)(c3cc4c(cc3OC)N(C)[C@H]3[C@@](O)(C(=O)OC)[C@H](OC(C)=O)[C@]5(CC)C=CCN6CC[C@]43[C@@H]65)C2)C1 | 22.6%
18 | Clc1ccc(COC(Cn2ccnc2)c2ccc(Cl)cc2Cl)c(Cl)c1 (stereo not given) [miconazole] | 216% and 116%
19 | CCCC(CCC)C(=O)O [valproate semisodium] | 188%
20 | OCc1cccnc1 | 237%

Row | SMILES | percent viability
21 | COc1ccc(-c2nc3cc(C4=NNC(=O)CC4C)ccc3[nH]2)cc1 (stereo not given) [pimobendan] | 77.7%
22 | COc1cc(NCCCCCNC(C)C)c2ncccc2c1 [pentaquine] | 154%
23 | CCN(CC)CCOC(=O)N(c1ccccc1)c1ccccc1 [dicarfen] | 162%
24 | COC(=O)[C@@H](N)CS | 469%
25 | CC[C@@H]1C(=O)OC[C@@H]1Cc1cncn1C | 101%
26 | CCCCCCCCNC(C)C(O)c1ccc(SC(C)C)cc1 (stereo not given) | 205%
27 | CCCOC(=O)Cn1cc(I)c(=O)c(I)c1 [propyliodone] | 171%
28 | CC(C)OC(=O)CCC/C=C\C[C@@H]1[C@@H](CC[C@@H](O)CCc2ccccc2)[C@H](O)C[C@@H]1O [Latanoprost] | 227% and 78.7%
29 | CN(C)C(=O)Cn1cc(-c2nc([C@@](C)(c3ccc(-c4cnc(N)nc4)cc3)C3CC3)no2)cn1 | 226%
30 | COc1ccc(/C=C/C(=O)OCCC(C)C)cc1 [amiloxate] | 46.6%
31 | C[C@H]1[C@H]2CC[C@H]3[C@@H]4CC=C5C[C@@H](N(C)C)CC[C@]5(C)[C@H]4CC[C@]23CN1C [conessine] | 80%
32 | Clc1ccccc1CN1CCc2sccc2C1 [Ticlopidine] | 282%
33 | COc1cc(C(=O)OCCN2CCN(CCCN3c4ccccc4Sc4ccc(Cl)cc43)CC2)cc(OC)c1OC [metofenazate] | 546%
34 | CC1=NN(c2ccccc2)C(=O)C1 [edaravone] | 210%
35 | CC(=O)O[C@H](CC(=O)[O-])C[N+](C)(C)C [Acetylcarnitine] | 232%
36 | CNCC[C@H](Oc1cccc2ccccc12)c1cccs1 | 396%
37 | Cc1onc(-c2ccccc2Cl)c1C(=O)N[C@@H]1C(=O)N2[C@@H]1SC(C)(C)[C@@H]2C(=O)O | 133%
38 | CNCC(=O)N[C@@H](CCCNC(=N)N)C(=O)N[C@H](C(=O)N[C@@H](Cc1ccc(O)cc1)C(=O)N[C@H](C(=O)N[C@@H](Cc1cnc[nH]1)C(=O)N1CCC[C@H]1C(=O)N[C@@H](C)C(=O)O)C(C)C)C(C)C [saralasin] | 130%
39 | Cc1ccc(-c2cc(C(F)(F)F)nn2-c2ccc(S(N)(=O)=O)cc2)cc1 [celecoxib] | 202% and 360%
40 | O=C1c2ccccc2S(=O)(=O)N1CCCCN1CCN(c2ncccn2)CC1 [ipsapirone] | 103%
